From PubChem BioAssay AID180 (DTP/NCI, 2004)
The list shows only some results of the screen, not a fair sample: its compounds were picked by chemical class. Not every dose and run of a compound is shown. T/C: endpoint of the treated group in % of that of the vehicle group. Schedule codes are those of the source, read here as Q, the interval in days (D) or hours (H), X, the number of doses. Some T/C values are followed by the survivors on the day toxicity was checked; without a count or a note in brackets, all were alive then. Some entries were tested several times; their values stand side by side, smallest first. Some doses have a count of surviving animals in place of a T/C: the source holds a T/C of zero for them, seemingly a mark for toxic or unscored doses. Counts of survivors are from the toxicity check, whose day is not always given; animals may have died later.

System: BDF1 mice, Adenocarcinoma 755 s.c., tumor weight T/C
Test: NCI In Vivo Anticancer Drug Screen. Data for tumor model Adenocarcinoma 755 (subcutaneous) in B6D2F1 (BDF1) mice
Details: T/C endpoint: mean tumor weight, schedule: Q01DX011 (ip), higher T/C = larger tumour; for T/C: evaluated on day 12
Procedure: The antitumor activity of compounds was measured in mice bearing transplantable tumors. Survival or tumor size were measured and the results are expressed as the measurement made in the treated group (T) divided by the measurement made in the vehicle treated control group (C). The tumor model used in this assay is Adenocarcinoma 755 (subcutaneous) in B6D2F1 (BDF1) mice

[1] = dose: 56.0 mg/kg/injection, vehicle: methylcellulose (MC)
[2] = dose: 225.0 mg/kg/injection, vehicle: methylcellulose (MC)
[3] = dose: 2.0 mg/kg/injection, vehicle: methylcellulose (MC)
[4] = dose: 4.0 mg/kg/injection, vehicle: methylcellulose (MC)
[5] = dose: 8.0 mg/kg/injection, vehicle: methylcellulose (MC)
[6] = dose: 16.0 mg/kg/injection, vehicle: methylcellulose (MC)
[7] = dose: 25.0 mg/kg/injection, vehicle: saline
[8] = dose: 50.0 mg/kg/injection, vehicle: saline
[9] = dose: 100.0 mg/kg/injection, vehicle: saline
[10] = dose: 200.0 mg/kg/injection, vehicle: saline

CC[C@H](C)[C@@H]1NC(=O)/C(=C(\C)O)C1=O
T/C (dose: 12.5 mg/kg/injection, vehicle: carboxymethylcellulose (CMC)): 89 % of control | T/C (dose: 25.0 mg/kg/injection, vehicle: carboxymethylcellulose (CMC)): 59 % of control [9 of 10 alive] | survivor count (dose: 50.0 mg/kg/injection, vehicle: carboxymethylcellulose (CMC)): 5 of 10 | survivor count (dose: 100.0 mg/kg/injection, vehicle: carboxymethylcellulose (CMC)): 0 of 10

O=P(NCCCO)(OCCCCl)N(CCCl)CCCl (configuration not stated)
T/C (dose: 28.0 mg/kg/injection, vehicle: methylcellulose (MC)): 71 % of control | T/C [1]: 54 % of control | T/C (dose: 112.0 mg/kg/injection, vehicle: methylcellulose (MC)): 26 % of control [9 of 10 alive] | T/C [2]: 3 % of control [7 of 10 alive]

CC(C)N(CCCl)/N=N/c1nc2nc(N)[nH]c(=O)c2[nH]1
T/C (dose: 25.0 mg/kg/injection, vehicle: methylcellulose (MC)): 85 % of control [9 of 10 alive] | T/C (dose: 50.0 mg/kg/injection, vehicle: methylcellulose (MC)): 62 % of control [9 of 10 alive] | T/C (dose: 100.0 mg/kg/injection, vehicle: methylcellulose (MC)): 41 % of control [7 of 10 alive] | T/C (dose: 200.0 mg/kg/injection, vehicle: methylcellulose (MC)): 22 % of control [7 of 10 alive]

CCOC(=O)COc1ccc(N(CCCl)CCCl)cc1
T/C [3]: 31, 51, 54 % of control | T/C [4]: 12, 20 [7 of 10 alive], 29 % of control | T/C [5]: 9 and 11 % of control | survivor count [5]: 6 of 10 | T/C [6]: 6 % of control [7 of 10 alive] | survivor count [6]: 3 of 10

O=C(O)CCc1cccc(N(CCCl)CCCl)c1
T/C (dose: 4.5 mg/kg/injection, vehicle: methylcellulose (MC)): 61 [7 of 10 alive] and 66 % of control | T/C (dose: 9.0 mg/kg/injection, vehicle: methylcellulose (MC)): 50 and 60 % of control [8 of 10 alive] | T/C (dose: 18.0 mg/kg/injection, vehicle: methylcellulose (MC)): 23 % of control | T/C (dose: 36.0 mg/kg/injection, vehicle: methylcellulose (MC)): 13 % of control [9 of 10 alive]

COC1OC(CNCCCl)C2OC(C)(C)OC12 (configuration not stated)
T/C [7]: 78 % of control | T/C [8]: 63 and 70 % of control | T/C [9]: 69 and 78 % of control | T/C [10]: 53 and 60 % of control | T/C (dose: 400.0 mg/kg/injection, vehicle: saline): 8 % of control | survivor count (dose: 800.0 mg/kg/injection, vehicle: saline): 0 of 10

NC(CC(=O)O)c1cccc(N(CCCl)CCCl)c1 (configuration not stated)
T/C (dose: 0.75 mg/kg/injection, vehicle: methylcellulose (MC)): 51 % of control | T/C (dose: 1.5 mg/kg/injection, vehicle: methylcellulose (MC)): 59 % of control | T/C (dose: 3.0 mg/kg/injection, vehicle: methylcellulose (MC)): 40 % of control | T/C (dose: 5.7 mg/kg/injection, vehicle: methylcellulose (MC)): 46 % of control [9 of 10 alive] | T/C (dose: 6.0 mg/kg/injection, vehicle: methylcellulose (MC)): 13 % of control | T/C (dose: 11.3 mg/kg/injection, vehicle: methylcellulose (MC)): 25 % of control | T/C (dose: 22.0 mg/kg/injection, vehicle: carboxymethylcellulose (CMC)): 3 % of control | T/C (dose: 22.5 mg/kg/injection, vehicle: methylcellulose (MC)): 6 % of control | T/C (dose: 33.0 mg/kg/injection, vehicle: carboxymethylcellulose (CMC)): 5 % of control [7 of 10 alive] | T/C (dose: 45.0 mg/kg/injection, vehicle: methylcellulose (MC)): 2 % of control [9 of 10 alive]

O=NN1CCN/C1=N\[N+](=O)[O-]
T/C (dose: 40.0 mg/kg/injection, vehicle: methylcellulose (MC)): 175 % of control | T/C (dose: 80.0 mg/kg/injection, vehicle: methylcellulose (MC)): 105 % of control | T/C (dose: 160.0 mg/kg/injection, vehicle: methylcellulose (MC)): 120 % of control [9 of 10 alive]

CC1CCNP(=O)(N(CCCl)CCCl)O1 (configuration not stated)
T/C (dose: 12.0 mg/kg/injection, vehicle: saline): 105 % of control | T/C [7]: 71 % of control | T/C [8]: 32 % of control | T/C [9]: 2 [7 of 10 alive] and 3 % of control

COc1cccc2c1OCCN2CCCl
T/C [1]: 80 % of control [8 of 10 alive] | T/C (dose: 113.0 mg/kg/injection, vehicle: methylcellulose (MC)): 100 % of control | T/C [2]: 62 % of control [9 of 10 alive]

CC1CNP(=O)(N(CCCl)CCCl)OC1 (configuration not stated)
T/C (dose: 22.0 mg/kg/injection, vehicle: methylcellulose (MC)): 88 % of control | T/C (dose: 44.0 mg/kg/injection, vehicle: methylcellulose (MC)): 76 % of control [9 of 10 alive] | T/C (dose: 88.0 mg/kg/injection, vehicle: methylcellulose (MC)): 67 % of control [9 of 10 alive] | T/C (dose: 175.0 mg/kg/injection, vehicle: methylcellulose (MC)): 23 % of control | survivor count [2]: 2 of 10 | survivor count (dose: 300.0 mg/kg/injection, vehicle: methylcellulose (MC)): 3 of 10

CC(C)N(CCCl)/N=N/c1nc2nc[nH]c(=O)c2[nH]1
T/C [7]: 106 % of control | T/C [8]: 92 % of control | T/C [9]: 115 % of control | T/C [10]: 81 % of control [8 of 10 alive]

O=C(O)COc1ccc(N(CCCl)CCCl)cc1
T/C (dose: 0.25 mg/kg/injection, vehicle: carboxymethylcellulose (CMC)): 63 % of control | T/C (dose: 0.5 mg/kg/injection, vehicle: carboxymethylcellulose (CMC)): 59 % of control | T/C (dose: 1.0 mg/kg/injection, vehicle: carboxymethylcellulose (CMC)): 19 % of control | T/C (dose: 2.0 mg/kg/injection, vehicle: carboxymethylcellulose (CMC)): 21 % of control | T/C [3]: 51 % of control | T/C (dose: 2.0 mg/kg/injection, vehicle: saline): 49 % of control | T/C [4]: 33 % of control | T/C (dose: 4.0 mg/kg/injection, vehicle: saline): 5 % of control | T/C [5]: 28 % of control
